Source: ChEMBL document CHEMBL3988442, “University of Dundee, Small-Polar-MMV Screening Library” (2021).

Sequences of proteins named here, by UniProt entry; tags and fusion partners are left off. Residues count along the entry.
UniProt P9WFT3, whole entry: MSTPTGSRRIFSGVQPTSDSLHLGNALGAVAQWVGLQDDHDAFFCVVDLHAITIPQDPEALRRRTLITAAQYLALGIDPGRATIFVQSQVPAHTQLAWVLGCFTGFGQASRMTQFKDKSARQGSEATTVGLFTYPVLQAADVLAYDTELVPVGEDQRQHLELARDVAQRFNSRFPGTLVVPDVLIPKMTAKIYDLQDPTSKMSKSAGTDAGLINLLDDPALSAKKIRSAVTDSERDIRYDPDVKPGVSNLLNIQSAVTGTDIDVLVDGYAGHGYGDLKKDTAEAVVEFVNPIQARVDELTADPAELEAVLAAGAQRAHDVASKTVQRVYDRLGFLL
UniProt Q8IDJ8, 1-583: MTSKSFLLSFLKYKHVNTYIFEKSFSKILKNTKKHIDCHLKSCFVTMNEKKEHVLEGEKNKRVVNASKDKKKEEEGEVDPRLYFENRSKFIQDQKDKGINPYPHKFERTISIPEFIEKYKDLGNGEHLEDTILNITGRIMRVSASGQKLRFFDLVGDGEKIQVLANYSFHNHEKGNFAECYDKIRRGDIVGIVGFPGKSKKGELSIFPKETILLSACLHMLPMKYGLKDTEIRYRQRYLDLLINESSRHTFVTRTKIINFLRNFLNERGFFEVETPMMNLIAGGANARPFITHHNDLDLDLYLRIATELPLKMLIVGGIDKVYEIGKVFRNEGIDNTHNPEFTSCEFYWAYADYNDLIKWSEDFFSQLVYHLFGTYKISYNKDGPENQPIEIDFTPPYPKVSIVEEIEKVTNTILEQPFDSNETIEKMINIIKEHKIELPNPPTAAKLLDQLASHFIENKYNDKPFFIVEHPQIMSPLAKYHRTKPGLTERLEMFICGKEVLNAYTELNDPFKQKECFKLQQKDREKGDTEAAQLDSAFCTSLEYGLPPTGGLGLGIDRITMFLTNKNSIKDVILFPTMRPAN
UniProt P9WPC5, whole entry: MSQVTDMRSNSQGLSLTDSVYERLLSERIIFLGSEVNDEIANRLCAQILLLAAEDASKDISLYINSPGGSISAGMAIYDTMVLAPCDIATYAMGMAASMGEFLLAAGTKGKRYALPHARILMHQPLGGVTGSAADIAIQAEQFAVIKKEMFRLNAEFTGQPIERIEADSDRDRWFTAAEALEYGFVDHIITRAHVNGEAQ
UniProt P9WPC3, whole entry partner: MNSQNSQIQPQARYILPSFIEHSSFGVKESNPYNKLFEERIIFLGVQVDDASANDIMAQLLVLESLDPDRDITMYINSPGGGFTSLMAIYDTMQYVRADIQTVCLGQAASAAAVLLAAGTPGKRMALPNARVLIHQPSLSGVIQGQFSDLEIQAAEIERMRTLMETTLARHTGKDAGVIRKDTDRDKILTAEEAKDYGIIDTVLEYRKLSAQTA

MtTrpRS: 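Enzyme assay of tryptophanyl-tRNA synthetase; the read-out is not stated. Target: Tryptophan-tRNA ligase, Mycobacterium tuberculosis (UniProt P9WFT3). Tested at 10 µM. Direction is not recorded; retested compounds ran higher, which suggests that high means inhibition. Of about 65,000 compounds tested this way, about 64 (0.098%) reached 50% or more in at least one test.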
PfKRS1: 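Lysine-tRNA ligase, Plasmodium falciparum 3D7 (UniProt Q8IDJ8). Enzyme assay of the cytosolic lysyl-tRNA synthetase in 384-well plates, read by luminescence. Compounds at 30 µM. Direction is inferred from only a few compounds that gave an IC50; most scored high, so higher reads as stronger inhibition. Size under these conditions: about 69,000 compounds, about 49 of them at 50% or above in at least one test.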
ClpP1P2: 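Protease assay of ClpP1P2, read by the AMC dye that it sets free. Target: ClpP1P2, Mycobacterium tuberculosis (UniProt P9WPC5 and UniProt P9WPC3). Concentration: 50 µM. Direction is inferred from only a few compounds that gave an IC50; most scored high, so higher reads as stronger inhibition. Most other retested compounds had strongly negative values. About 69,000 compounds were tested under these conditions; 0.015% (about 10) showed 50% or more at least once.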

Values are the deposited “Percent Effect”, in %. The controls that fix the scale are not given in the record; negative values are as filed. Compounds were drawn at random from those tested, without regard to their results. A dash means the value is not listed here; it may have been measured.

structure | MtTrpRS | PfKRS1 | ClpP1P2
O=C(c1cccnc1N1CCOCC1)N1CCCC(n2cccn2)C1 (centres unmarked) | -3.744 | 1.401 | -46.79
CCCc1nnc2sc(C3CCN(C4CCN(C)CC4)CC3)nn12 | -6.108 | 2.235 | -14.78
Cc1cc(C(=O)N2CCc3c(ncn3CCc3ccccc3)C2)on1 | -3.802 | 1.26 | -1.408
CS(=O)(=O)N1CCC2(CC1)COC(COc1cccnc1)C2 (centres unmarked) | -0.1803 | 1.529 | -6.555
CCS(=O)(=O)CCNC(=O)NC(C)c1ccc(C)s1 (centres unmarked) | -2.97 | 4.259 | -4.116
Cc1ccc(NC(=O)NCCc2cnn(C)c2)c(N(C)C)n1 | 1.704 | 5.973 | -5.58
O=C1CC2(CCN(C(=O)c3cccc(Cl)c3)CC2)CN1 | -2.026 | 1.397 | -24.58
CC(C)Cc1cc(CNC(=O)c2cccc3c2OCC3)no1 | 2.106 | 4.291 | 0.4179
CC(C)N(Cc1ccc(C(F)(F)F)nc1)Cc1cnn(C)c1 | -1.447 | 7.725 | -9.733
CCc1c(C)nc(N)nc1N1CCCC(c2nc(CCOC)no2)C1 (centres unmarked) | -2.97 | -2.32 | 1.432
Cn1cc(S(=O)(=O)NCCc2ccsc2)cn1 | -0.2681 | -2.164 | -4.918
CCN(CC(=O)NC)C(=O)Cc1csc(C(C)C)n1 | -1.474 | 1.709 | -2.94
C[C@@H]1C[C@H]2CN(C(=O)c3ccncn3)C[C@H]2O1 | 1.936 | 2.555 | -17.84
Cc1cnn(CC2CCCCN2Cc2noc(C3CC3)n2)c1 (centres unmarked) | 0.3145 | 1.952 | 8.653
Cc1cc(F)cc(CN2CCCn3nc(CNS(C)(=O)=O)cc3C2)c1 | -4.617 | 11.72 | -0.5885
Cc1cc(C(=O)NCC(Cc2cccc(F)c2)N2CCCCC2=O)no1 (centres unmarked) | 1.373 | 0.6251 | -11.14
COc1ccc(C(=O)CNC(=O)c2nc(Cl)sc2C(C)C)cc1 | 2.617 | -0.6044 | 5.492
CC(C)n1[nH]c(=O)c2c1NC(=O)CC2C1CCCCC1 (centres unmarked) | 2.287 | 10.79 | -12.15
O=C(c1n[nH]c(=O)c2ccccc12)N1CCC(O)(CN2CCOCC2)C1 (centres unmarked) | 9.715 | -2.615 | -0.8741
CC(C)CNC(=O)c1ccc(NC(=O)NC(C)(C)CO)cc1Cl | -3.431 | -0.274 | -2.125
C=C(C)COc1ccccc1CN1CCCC(C(=O)NCCCO)C1 (centres unmarked) | -9.397 | -1.351 | -4.04
COCCN1CCN(c2nc(O)cc(Cc3ccccc3F)n2)CC1 | -2.264 | -1.754 | -11.83
O=C(Nc1cccnc1)[C@H]1CN(Cc2ccco2)C[C@H]2OCC[C@@H]12 | -4.334 | 7.094 | -3.717
Cc1nc2n(n1)CC(NCc1nc(-c3cccnc3)no1)CC2 (centres unmarked) | 2.685 | 9.71 | 1.77
CC(=O)NCC(=O)N1CCN(CCN(C)C)c2ncccc2C1 | -4.321 | -0.8226 | 0.2441
O=C(Nc1ccc(-n2cncn2)nc1)N(CC1CCOC1)C1CC1 (centres unmarked) | 2.082 | 0.4257 | 0.2277
CC(=O)c1cc(C(=O)N2CCC(CC(C)C)C2)c(=O)[nH]c1C (centres unmarked) | 1.852 | 2.883 | -12.41
CCCc1nnc(NC2CCN(C3CCSCC3)CC2)o1 | -7.018 | 2.957 | 2.159
CN(C(=O)CSc1ccccn1)C1CCCN(CCc2ccccc2)C1 (centres unmarked) | -1.671 | 6.863 | 2.987
c1ccc2nc(N3CCCC3)c(NCc3nnc4n3CCC4)nc2c1 | -3.229 | 2.016 | 4.32
CC(C)(C)OC(=O)NCC1CCN(C(=O)c2cc(Cl)c[nH]2)CC1 | -5.299 | 5.189 | 1.127
Cc1nc(C)n(CC2CN(CC(=O)Nc3nccs3)CCO2)n1 (centres unmarked) | -3.791 | 5.64 | -7.695
Cc1cc(C(=O)Nc2ccc(N3CCCC3)cn2)ccc1-n1cncn1 | -0.9723 | 1.437 | -0.4835
CCc1ccc(C(=O)N2CCCC2c2c(C)nn(C)c2OC)o1 (centres unmarked) | -2.271 | 0.5448 | -9.634
Cc1ccccc1CN1CCC2(COCc3cnc(N(C)C)nc32)C1 (centres unmarked) | 0.4112 | 7.443 | 1.708
CCc1ccc2nc(NCCOCCO)cc(C)c2c1 | -2.564 | 1.856 | 0.2248
NC(=O)CN1CCCC1c1ccccc1Br (centres unmarked) | 4.444 | 1.985 | -13.16
c1cnnc(N2CCCC2CNCc2nc(-c3ccco3)no2)c1 (centres unmarked) | -2.674 | -0.3146 | -18.3
Cc1ccc2c(c1)OC(C)(C)CC2NC(=O)C1CCN(C)CC1 (centres unmarked) | 1.41 | 4.305 | -8.17
COc1ccccc1N1CC(NC(=O)c2cc(C(C)C)nn2C)CC1=O (centres unmarked) | -1.879 | 3.353 | -11.78
CN(CCO)Cc1nnc(C2CCN(C(=O)c3cccnc3)CC2)n1C | 3.02 | 6.541 | -8.873
COCCCNC(=O)c1cc(OC)c2ccoc2c1 | -1.364 | 7.22 | 3.826
COc1ncc(CN2CCOC(C)(C(=O)N3CCOCC3)C2)cn1 (centres unmarked) | - | 3.787 | 6.59
CCn1ccnc1CN1CCCN(C(=O)c2cccc(C#N)c2)CC1 | 0.3712 | 5.627 | -8.592
CN(Cc1ccc(F)cc1)[C@@H]1CN(S(=O)(=O)N(C)C)C[C@H]1O | -2.734 | -0.2563 | -10.77
COc1ccc(NC(=O)N(C)Cc2ccsc2)cn1 | -6.304 | 0.8287 | -15.31
CN1CCC(N(C)C(=O)CCc2ccc(F)c(F)c2)C1=O (centres unmarked) | 0.7452 | 0.9028 | -5.971
CC1(C)CN(C(=O)c2cnc(CN3CCCC3)s2)CC[C@]1(C)O | 2.614 | 3.839 | -8.109
COc1ccc(CN2C[C@@H]3[C@H](CC(=O)N4CCCC4)[C@@H]3C2)cc1 | 3.638 | 6.745 | -5.797
CNc1ncc(-c2csc(NC(=O)C[C@H]3COCCN3)n2)cn1 | - | 3.133 | 14.85
Cn1ccc(C(=O)Nc2nnc(-c3ccccn3)[nH]2)cc1=O | -2.835 | -0.3151 | -8.66
CC(=O)NC[C@H]1C[C@@H]2CCN1C[C@@H]2c1cc(-c2cccs2)nn1C | -1.297 | 4.186 | -7.199
CN1CCC(O)(CNCc2ccc(F)c(C(F)(F)F)c2)CC1 | -3.968 | 0.6156 | 3.174
O=C1[C@H]2CN(Cc3ccoc3)C[C@@H]2CCN1Cc1cccnc1 | -0.7407 | 3.762 | 8.592
O=C(Cc1ccccc1)N1CCn2cc(Cn3cncn3)nc2C1 | 30.31 | -6.676 | 2.36
CC(c1ccccc1Cl)N1CCN(C(=O)c2ccc(=O)[nH]c2)CC1 (centres unmarked) | 3.659 | 2.035 | -1.14
Cc1ccc(OCCC(=O)N(C)CCC#N)cc1C | -1.484 | -2.212 | -8.419
Cc1ccc(N(CC(=O)c2ccc(Br)cc2)C2=NCCCCC2)cc1 | -2.225 | 9.53 | -11.06
Cc1ccc2c(n1)N(CC(C)C)CCN(S(C)(=O)=O)C2 | -2.827 | -0.1759 | -5.967
Cc1nc(CN2CCN(S(=O)(=O)N3CCOCC3)CC2)oc1C | 1.943 | -5.256 | -3.602
COc1ccc2c(c1)CCN(CCC(=O)O)CC2 | 1.471 | -5.342 | 4.299
Cc1noc([C@@]23CCO[C@@H]2CCN(C(=O)c2ccsc2)C3)n1 | 0.6506 | -0.4258 | -10.85
O=S1(=O)N=C(SCc2ccc(Cl)cc2)Nc2ccc(F)cc21 | 5.843 | -2.52 | 3.988
COc1ccc(C[C@H]2CN(C(=O)c3ccncc3)CC[C@@H]2OC)cc1 | -3.282 | -6.681 | 8.347
Cc1cc(CNC(=O)NCCOc2ccc(F)c(F)c2)on1 | 1.323 | 5.713 | -1.52
CC(Cn1cccn1)NC(=O)NCc1ccc(S(N)(=O)=O)cc1 (centres unmarked) | -1.329 | 2.317 | 17.98
Cc1ccc(NC2CCN(C(=O)c3ccoc3C)CC2)nn1 | 0.104 | -0.8139 | -275

Once more, the final 4:

- COc1ccc(C[C@H]2CN(C(=O)c3ccncc3)CC[C@@H]2OC)cc1 | MtTrpRS: -3.282%; PfKRS1: -6.681%; ClpP1P2: 8.347%
- Cc1cc(CNC(=O)NCCOc2ccc(F)c(F)c2)on1 | MtTrpRS: 1.323%; PfKRS1: 5.713%; ClpP1P2: -1.52%
- CC(Cn1cccn1)NC(=O)NCc1ccc(S(N)(=O)=O)cc1 (centres unmarked) | MtTrpRS: -1.329%; PfKRS1: 2.317%; ClpP1P2: 17.98%
- Cc1ccc(NC2CCN(C(=O)c3ccoc3C)CC2)nn1 | MtTrpRS: 0.104%; PfKRS1: -0.8139%; ClpP1P2: -275%